Experimental findings from PubChem BioAssay AID248 (DTP/NCI, 2004) are described below.

The subject of this assay is L1210 leukemia ip in BDF1 mice, survival T/C. Put plainly: NCI In Vivo Anticancer Drug Screen. Data for tumor model L1210 Leukemia (intraperitoneal) in B6D2F1 (BDF1) mice. The settings on record: T/C endpoint: mean survival time, higher T/C = longer survival.
Setting [1] is: dose: 100.0 mg/kg/injection, schedule: Q01DX009 (ip), vehicle: saline with Tween-80.
Setting [2] is: dose: 400.0 mg/kg/injection, schedule: Q04DX003 (ip), vehicle: saline with Tween-80.
[3] abbreviates: dose: 300.0 mg/kg/injection, schedule: Q01DX001 (ip), vehicle: saline.
[4] abbreviates: dose: 400.0 mg/kg/injection, schedule: Q04DX003 (ip), vehicle: saline.
Where [5] appears, read: dose: 400.0 mg/kg/injection, schedule: Q01DX001 (ip), vehicle: saline.

The list shows only some results of the screen, not a fair sample: it gathers tests that were run many times, whatever their T/C, doses with no T/C, and many T/C values between a quarter and a half above the control. Further doses and runs are listed elsewhere. T/C: endpoint of the treated group in % of that of the vehicle group. Some doses have a count of surviving animals in place of a T/C: the source files T/C as zero there, which appears to mark a toxic dose or a test without result, not a measured value. Some survivor counts are full or nearly so, which does not show that the dose was tolerated: survival well below the control is almost never listed, so the zero probably covers shortened survival too. Survivors were counted at the toxicity check, usually on the fifth day, unless a day is given; later deaths do not show. Schedule codes are those of the source, read here as Q, the interval in days (D) or hours (H), X, the number of doses. Some schedules carry Z or #; the key to these is not given. Some molecules as drawn cover several salts, stereoisomers or complexes of the source; a dose is that of the sample tested. For survival time, the PubChem record calls one and a half times the control and up active, and a quarter to a half above the control has no call in these data; cut-offs in other NCI protocols can differ. Some T/C values are followed by the survivors on the day toxicity was checked, most often the fifth; without a count, all were alive then.

`CCOC(=O)c1c(NC(=O)CCl)ssc1=S`: the survivor count was 3 of 6 under setting [1]; 2 of 6 (dose: 200.0 mg/kg/injection, schedule: Q01DX009 (ip), vehicle: saline with Tween-80); 1 of 6 (dose: 300.0 mg/kg/injection, schedule: Q01DX009 (ip), vehicle: saline with Tween-80); 3 of 6 under setting [2].

With `O=NN(CCF)C(=O)NC1CCCCCCCCCCC1`, the T/C (dose: 93.0 mg/kg/injection, schedule: Q01DX001 (ip), vehicle: other) is 133 % of control. Further, the survivor count runs as follows: (dose: 187.0 mg/kg/injection, schedule: Q01DX001 (ip), vehicle: other) 0 of 10; (dose: 250.0 mg/kg/injection, schedule: Q01DX001 (ip), vehicle: other) 0 of 10; (dose: 375.0 mg/kg/injection, schedule: Q01DX001 (ip), vehicle: other) 0 of 10; (dose: 500.0 mg/kg/injection, schedule: Q01DX001 (ip), vehicle: other) 0 of 10; (dose: 750.0 mg/kg/injection, schedule: Q01DX001 (ip), vehicle: other) 0 of 10; (dose: 1000.0 mg/kg/injection, schedule: Q01DX001 (ip), vehicle: other) 0 of 10.

`Cc1cn(C2OC(CO)C(O)C2O)c(=O)[nH]c1=O` (stereo not given): the survivor count (dose: 15.0 mg/kg/injection, schedule: Q01DX Z (ip), vehicle: saline) is reported as 6 of 6.

For `O=[N+]([O-])c1ccc(C=Nc2ccc3c(c2)C(Br)c2ccccc2-3)cc1` (stereo not given), for the setting “dose: 50.0 mg/kg/injection, schedule: Q01DX Z (ip), vehicle: saline”, the survivor count is 6 of 6.

As for `N#CC(N)c1ccccc1` (stereo not given), the survivor count (dose: 150.0 mg/kg/injection, schedule: Q01DX001 (ip), vehicle: saline) is on record as 0 of 6 and the survivor count under setting [3] is on record as 1 of 6.

With `CCOC(=O)C1=C(C)C(C)C(=O)NC1=O` (stereo not given), under setting [1], the survivor count is given as 6 of 6.

For `O=c1[nH]c(=O)ss1`, the survivor count under setting [4] is given as 0 of 4.

Regarding `Nc1nc(N)c2cc(CNc3ccc(C(=O)NC(C(=O)O)C(=O)O)cc3)ccc2n1`, the T/C by setting is: (dose: 0.12 mg/kg/injection, schedule: Q01DX001 (ip), vehicle: saline) 125 % of control; (dose: 0.12 mg/kg/injection, schedule: Q01DX015 (ip), vehicle: carboxymethylcellulose (CMC)) 125 % of control; (dose: 0.25 mg/kg/injection, schedule: Q01DX001 (ip), vehicle: saline) 148 % of control; (dose: 0.5 mg/kg/injection, schedule: Q01DX001 (ip), vehicle: saline) 130 % of control; (dose: 3.3 mg/kg/injection, schedule: Q01DX001 (ip), vehicle: carboxymethylcellulose (CMC)) 134 % of control; (dose: 7.5 mg/kg/injection, schedule: Q01DX001 (ip), vehicle: carboxymethylcellulose (CMC)) 141 % of control. Also, the T/C (dose: 10.0 mg/kg/injection, schedule: Q01DX001 (ip), vehicle: carboxymethylcellulose (CMC)) was 126 % of control. The survivor count is 6 of 6 (dose: 0.5 mg/kg/injection, schedule: Q01DX015 (ip), vehicle: carboxymethylcellulose (CMC)); 4 of 4 (dose: 40.0 mg/kg/injection, schedule: Q01DX001 (ip), vehicle: carboxymethylcellulose (CMC)); 4 of 4 (dose: 80.0 mg/kg/injection, schedule: Q01DX001 (ip), vehicle: carboxymethylcellulose (CMC)); 3 of 4 (dose: 100.0 mg/kg/injection, schedule: Q01DX001 (ip), vehicle: carboxymethylcellulose (CMC)); 2 of 4 (dose: 200.0 mg/kg/injection, schedule: Q01DX001 (ip), vehicle: carboxymethylcellulose (CMC)); 3 of 4 (dose: 400.0 mg/kg/injection, schedule: Q01DX001 (ip), vehicle: carboxymethylcellulose (CMC)).

As to `CCOc1ccc(N)c(O)c1`, the survivor count is 1 of 6 (dose: 150.0 mg/kg/injection, schedule: Q01DX001 (ip), vehicle: carboxymethylcellulose (CMC)) and 0 of 6 (dose: 300.0 mg/kg/injection, schedule: Q01DX001 (ip), vehicle: carboxymethylcellulose (CMC)).

Regarding `NC1(C(=O)NCC(=O)O)CCCC1`, the T/C under setting [4] was 125 % of control.

Regarding `C[N+](C)(C)CCOC(=O)c1ccccc1CBr`, the survivor count (dose: 12.5 mg/kg/injection, schedule: Q01DX009 (ip), vehicle: saline) is 2 of 6; the survivor count (dose: 12.5 mg/kg/injection, schedule: Q04DX002 (ip), vehicle: Klucel (hydroxypropylcellulose) (HPC)) is reported as 1 of 3; the survivor count (dose: 25.0 mg/kg/injection, schedule: Q04DX002 (ip), vehicle: Klucel (hydroxypropylcellulose) (HPC)) was 0 of 3; the survivor count (dose: 25.0 mg/kg/injection, schedule: Q04DX003 (ip), vehicle: saline) was 0 of 6; the survivor count (dose: 50.0 mg/kg/injection, schedule: Q04DX002 (ip), vehicle: Klucel (hydroxypropylcellulose) (HPC)) is 0 of 3; the survivor count (dose: 100.0 mg/kg/injection, schedule: Q04DX002 (ip), vehicle: Klucel (hydroxypropylcellulose) (HPC)) was 0 of 3. The survivor count reads like this: (dose: 200.0 mg/kg/injection, schedule: Q04DX002 (ip), vehicle: Klucel (hydroxypropylcellulose) (HPC)) 0 of 3; (dose: 400.0 mg/kg/injection, schedule: Q04DX002 (ip), vehicle: Klucel (hydroxypropylcellulose) (HPC)) 0 of 3.

On to `CN(C)C1CCC2C3CC=C4CC(OC=O)CCC4(C)C3CCC21C` (stereo not given), for which the survivor count by setting is: (dose: 75.0 mg/kg/injection, schedule: Q01DX001 (ip), vehicle: other) 1 of 6; (dose: 150.0 mg/kg/injection, schedule: Q01DX001 (ip), vehicle: other) 0 of 6; (dose: 300.0 mg/kg/injection, schedule: Q01DX001 (ip), vehicle: other) 0 of 6.

Consider `Nc1ncnc2c1nc(N)n2C1OC(CO)C(O)C1O` (stereo not given), for which the survivor count under setting [5] is recorded as 0 of 6.

As for `CN(C)Cc1ccccc1C(O)(c1ccccc1)c1ccccc1CN(C)C`, the survivor count (dose: 64.0 mg/kg/injection, schedule: Q01DX015 (ip), vehicle: carboxymethylcellulose (CMC)) is recorded as 6 of 6.

As for `CC(C)c1cccc(OC(=O)N(C)[Si](C)(C)C)c1`, the survivor count (dose: 80.0 mg/kg/injection, schedule: Q01DX001 (ip), vehicle: saline) is 0 of 6.

For `Nc1ccc(C(=O)N/N=C/c2ccc(N(CCBr)CCBr)cc2)cc1`, the T/C by setting is: (dose: 25.0 mg/kg/injection, schedule: Q01DX Z (ip), vehicle: carboxymethylcellulose (CMC)) 134 % of control [5 of 6 alive]; (dose: 50.0 mg/kg/injection, schedule: Q01DX Z (ip), vehicle: carboxymethylcellulose (CMC)) 138 % of control; under setting [5], 127 % of control [3 of 4 alive]. Further, under “dose: 100.0 mg/kg/injection, schedule: Q01DX Z (ip), vehicle: carboxymethylcellulose (CMC)”, the survivor count is on record as 6 of 6.

Take `O=c1cc(C(F)(F)F)[nH]c2ccc(Br)cc12`: the survivor count runs as follows: (dose: 100.0 mg/kg/injection, schedule: Q04DX003 (ip), vehicle: saline with Tween-80) 5 of 6; (dose: 200.0 mg/kg/injection, schedule: Q04DX003 (ip), vehicle: saline with Tween-80) 4 of 6; under setting [2], 0 of 6.

On to `O=[N+]([O-])c1ccc(S(=O)(=O)SC(F)(F)F)cc1`, for which the survivor count under setting [3] is recorded as 1 of 6.
